Data as given in PubChem BioAssay AID1224828 (NIAID, 2016)
Screen: 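Regulators linking TLR4 signalling to p65 nuclear translocation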 (primary screen). Cells: mouse RAW264.7 G9 macrophage reporter cells (GFP-p65, Tnf promoter-mCherry). Reagents: siRNA pool against mouse genes, 100 nM. Time to read-out: 2 days siRNA transfection, then 40 min LPS before fixation. Treatment: LPS (Salmonella minnesota R595) at 10 ng/ml. Detection: 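Microscopy ratio of nuclear to perinuclear-ring GFP-p65 signal, scaled to the plate median; gene score is the average of two replicate robust z-scores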. Direction: p65 translocation robust z-score: higher = more nuclear NF-kappaB p65 after LPS than the plate median; nuclear/cytoplasmic p65 ratio: higher = more nuclear NF-kappaB p65. Call rule: 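Active if robust z is above 3.3 (negative regulators) or below -1.56, the Tlr4 control median (positive regulators); activity score 50 or more; control wells not called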. Meaning of the calls: active = hit (p65 shift raised or lowered); inactive = no clear change.
The deposit covers about 17,000 reagents; this is a random part of them. 762 of them (4.5%) were called active. 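Active calls include both raised and lowered p65 entry, mostly lowered; wells with fewer than 50 cells lack a z-score.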 The raw values are shown without normalisation. Entries without a mark were called inactive. The numbers tell different reagents against one gene apart.

target gene,pool no.,p65 translocation robust z-score,"nuclear/cytoplasmic p65 ratio, rep 1","nuclear/cytoplasmic p65 ratio, rep 2",low cell count flag
Klk1b4 (kallikrein 1-related pepidase b4),1,-1.11,1.49,1.53,enough cells to score
4932414N04Rik (RIKEN cDNA 4932414N04 gene),1,,1.06,1.04,fewer than 50 cells per well; well left out of scoring
Atpsckmt (ATP synthase C subunit lysine N-methyltransferase),1,,1.3,1.42,fewer than 50 cells per well; well left out of scoring
Mrpl32 (mitochondrial ribosomal protein L32),1,-0.86,1.33,1.24,enough cells to score
Brd8 (bromodomain containing 8),1,-0.58,1.54,1.51,enough cells to score
Stard3 (StAR related lipid transfer domain containing 3),1,1.16,1.71,1.25,enough cells to score
Rfesd (Rieske (Fe-S) domain containing),1,-0.4,1.49,1.68,enough cells to score
P3h3 (prolyl 3-hydroxylase 3),1,0.99,1.81,1.74,enough cells to score
Chchd4 (coiled-coil-helix-coiled-coil-helix domain containing 4),1,-0.72,1.46,1.7,enough cells to score
Mpped1 (metallophosphoesterase domain containing 1),1,1.24,1.86,1.88,enough cells to score
Gm9725 (predicted gene 9725),1,1.04,1.26,1.51,enough cells to score
Cep95 (centrosomal protein 95),1,,1.27,1.02,fewer than 50 cells per well; well left out of scoring
Thg1l (tRNA-histidine guanylyltransferase 1-like (S. cerevisiae)),1,-0.66,1.46,1.44,enough cells to score
"Crygf (crystallin, gamma F)",1,-0.96,1.42,1.63,enough cells to score
Ell3 (elongation factor RNA polymerase II-like 3),1,,1.21,1.19,fewer than 50 cells per well; well left out of scoring
Dab1 (disabled 1),1,-0.37,1.41,1.33,enough cells to score
Dab1 (disabled 1),2,1.27,1.66,2.12,enough cells to score
Klre1 (killer cell lectin-like receptor family E member 1),1,-1.04,1.43,1.27,enough cells to score
Mcts1 (malignant T cell amplified sequence 1),1,-0.21,1.4,1.33,enough cells to score
"Ckmt2 (creatine kinase, mitochondrial 2)",1,-0.13,1.57,1.45,enough cells to score
"Rfx4 (regulatory factor X, 4 (influences HLA class II expression))",1,-0.52,1.51,1.38,enough cells to score
"Cyp2j6 (cytochrome P450, family 2, subfamily j, polypeptide 6)",1,0.61,1.62,1.94,enough cells to score
Pnmt (phenylethanolamine-N-methyltransferase),1,0.39,1.64,1.38,enough cells to score
Btf3l4 (basic transcription factor 3-like 4),1,,1.67,1.61,fewer than 50 cells per well; well left out of scoring

2 neighbouring reagents from above:
target gene,pool no.,p65 translocation robust z-score,"nuclear/cytoplasmic p65 ratio, rep 1","nuclear/cytoplasmic p65 ratio, rep 2",low cell count flag
"Rfx4 (regulatory factor X, 4 (influences HLA class II expression))",1,-0.52,1.51,1.38,enough cells to score
"Cyp2j6 (cytochrome P450, family 2, subfamily j, polypeptide 6)",1,0.61,1.62,1.94,enough cells to score
